According to patent US20060019252A1:
Residue numbers refer to the chain shown, from its start. Numbers in names are those of the source. These are yes or no findings as the source states them, for the method shown. For part of these data: In cells and extracts the contact can be indirect. Some entries that bind do so weakly or less than the wild type. For part of these data: Where a sequence is shown, tags or fusion partners need not be part of it. Values belong to the binder of their own block, whether it stands above or below them.

Key:
[1] = target: T1, FLAG-tagged PPIL1 protein (human); test: co-immunoprecipitation from transfected COS7 cells, immunoblot
T1 sequence: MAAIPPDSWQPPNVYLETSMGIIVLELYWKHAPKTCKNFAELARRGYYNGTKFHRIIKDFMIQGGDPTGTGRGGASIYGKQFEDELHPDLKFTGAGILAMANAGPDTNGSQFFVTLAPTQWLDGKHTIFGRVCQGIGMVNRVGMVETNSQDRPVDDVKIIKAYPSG

[2] = target: T2, HA-tagged stathmin protein (human) (UniProt P16949); test: co-immunoprecipitation from COS7 cells (FIG. 23B)
T2 sequence (looked up): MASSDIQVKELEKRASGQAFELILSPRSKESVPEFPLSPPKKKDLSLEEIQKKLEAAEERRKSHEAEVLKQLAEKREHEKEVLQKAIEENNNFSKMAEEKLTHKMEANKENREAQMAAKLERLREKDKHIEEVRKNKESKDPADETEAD

[3] = target: T2, HA-tagged stathmin protein (human); test: co-immunoprecipitation from co-transfected COS7 cells, immunoblot
[4] = target: T3, myc-tagged SNW1 protein (human) (UniProt Q13573); test: as above
T3 sequence (looked up): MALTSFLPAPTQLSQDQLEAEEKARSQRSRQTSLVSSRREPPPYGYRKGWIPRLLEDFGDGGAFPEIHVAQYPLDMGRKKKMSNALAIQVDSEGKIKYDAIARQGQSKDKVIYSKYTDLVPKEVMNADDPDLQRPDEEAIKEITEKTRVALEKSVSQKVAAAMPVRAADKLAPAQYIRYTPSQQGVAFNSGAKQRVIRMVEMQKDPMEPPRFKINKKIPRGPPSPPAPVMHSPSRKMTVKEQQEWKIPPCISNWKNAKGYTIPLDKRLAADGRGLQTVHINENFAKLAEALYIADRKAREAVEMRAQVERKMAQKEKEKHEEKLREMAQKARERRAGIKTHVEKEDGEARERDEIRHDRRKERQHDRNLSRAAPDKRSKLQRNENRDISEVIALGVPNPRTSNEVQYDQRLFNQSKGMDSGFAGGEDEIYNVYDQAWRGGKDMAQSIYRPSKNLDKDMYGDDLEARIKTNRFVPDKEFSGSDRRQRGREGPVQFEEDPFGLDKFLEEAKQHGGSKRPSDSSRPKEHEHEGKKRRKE

[5] = target: T3, myc-tagged SNW1 protein (human); test: co-immunoprecipitation from co-transfected COS7 cells (anti c-Myc or anti FLAG), immunoblot
[6] = target: T4, stathmin target clone of the bacterial two-hybrid system (pTRG-STMN) (human) (UniProt P16949); test: two-hybrid system (FIG. 23A)
T4 sequence (looked up): T2 sequence (looked up)

[7] = target: T5, PPIL1 bait of the bacterial two-hybrid system (pBT-PPIL1) (human); test: bacterial two-hybrid (BacterioMatch)
T5 sequence: T1 sequence

[8] = target: T1, FLAG-tagged PPIL1 protein (human); test: co-precipitation from transfected cells, immunoblot

B2: FLAG-tagged PPIL1 protein (enzyme, not shown: small tags and cut ends)
chain: T1 sequence
binding [2]: binds
binding [3]: binds
binding [4]: binds
binding [5]: binds

B3: PPIL1 bait of the bacterial two-hybrid system (pBT-PPIL1) (enzyme, not shown: large carriers)
chain: T1 sequence
binding [6]: binds

B6: stathmin deletion mutant (Del3) lacking amino acids 1-43 (protein, not shown: small tags and cut ends)
chain: MDLSLEEIQKKLEAAEERRKSHEAEVLKQLAEKREHEKEVLQKAIEENNNFSKMAEEKLTHKMEANKENREAQMAAKLERLREKDKHIEEVRKNKESKDPADETEAD
binding [1]: binds

More lines, now with the values ahead:

binding [1]: binds
B1: stathmin mutant containing amino acids 1 to 61 (protein, not shown: small tags and cut ends)
chain: MASSDIQVKELEKRASGQAFELILSPRSKESVPEFPLSPPKKKDLSLEEIQKKLEAAEERR

binding [7]: binds
B4: stathmin target clone of the bacterial two-hybrid system (pTRG-STMN) (protein, human, UniProt P16949 1-149, looked up, not shown: large carriers)
chain: T2 sequence (looked up)

binding [8]: binds
B5: stathmin-S38A mutant (protein, human, UniProt P16949 1-149, looked up, not shown: small tags and cut ends)
chain: T2 sequence (looked up) with S38A
